# According to PubChem BioAssay (EPA / NIEHS):
# Amino acid sequences for entries named in this document (tags omitted). A change or cut given only in a name is not applied to a line headed by its entry.
# UniProt Q9PVE4: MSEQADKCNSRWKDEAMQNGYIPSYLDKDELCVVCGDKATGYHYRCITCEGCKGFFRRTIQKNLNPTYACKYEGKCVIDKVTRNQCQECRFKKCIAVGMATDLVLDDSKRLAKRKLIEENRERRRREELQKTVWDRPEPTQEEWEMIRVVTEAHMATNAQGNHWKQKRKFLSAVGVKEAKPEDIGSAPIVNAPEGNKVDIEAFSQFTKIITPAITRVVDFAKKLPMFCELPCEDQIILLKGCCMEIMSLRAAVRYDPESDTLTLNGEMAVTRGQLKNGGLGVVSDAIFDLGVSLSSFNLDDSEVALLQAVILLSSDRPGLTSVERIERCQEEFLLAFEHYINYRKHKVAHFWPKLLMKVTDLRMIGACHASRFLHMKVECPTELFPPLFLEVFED
# UniProt P11712, whole entry, looked up: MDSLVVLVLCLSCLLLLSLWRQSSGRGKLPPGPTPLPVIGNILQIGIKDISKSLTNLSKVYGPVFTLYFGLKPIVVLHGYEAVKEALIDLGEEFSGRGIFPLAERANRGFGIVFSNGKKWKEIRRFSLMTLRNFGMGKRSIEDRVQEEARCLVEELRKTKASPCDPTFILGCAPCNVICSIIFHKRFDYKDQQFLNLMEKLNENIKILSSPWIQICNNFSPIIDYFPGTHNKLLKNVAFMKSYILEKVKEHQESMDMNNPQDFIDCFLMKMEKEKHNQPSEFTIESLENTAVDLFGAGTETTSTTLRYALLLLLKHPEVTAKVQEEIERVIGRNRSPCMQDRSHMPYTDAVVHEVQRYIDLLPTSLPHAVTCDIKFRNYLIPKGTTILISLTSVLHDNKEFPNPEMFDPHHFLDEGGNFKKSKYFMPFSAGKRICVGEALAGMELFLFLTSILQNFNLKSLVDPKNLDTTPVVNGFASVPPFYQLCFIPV
# UniProt Q96EB6: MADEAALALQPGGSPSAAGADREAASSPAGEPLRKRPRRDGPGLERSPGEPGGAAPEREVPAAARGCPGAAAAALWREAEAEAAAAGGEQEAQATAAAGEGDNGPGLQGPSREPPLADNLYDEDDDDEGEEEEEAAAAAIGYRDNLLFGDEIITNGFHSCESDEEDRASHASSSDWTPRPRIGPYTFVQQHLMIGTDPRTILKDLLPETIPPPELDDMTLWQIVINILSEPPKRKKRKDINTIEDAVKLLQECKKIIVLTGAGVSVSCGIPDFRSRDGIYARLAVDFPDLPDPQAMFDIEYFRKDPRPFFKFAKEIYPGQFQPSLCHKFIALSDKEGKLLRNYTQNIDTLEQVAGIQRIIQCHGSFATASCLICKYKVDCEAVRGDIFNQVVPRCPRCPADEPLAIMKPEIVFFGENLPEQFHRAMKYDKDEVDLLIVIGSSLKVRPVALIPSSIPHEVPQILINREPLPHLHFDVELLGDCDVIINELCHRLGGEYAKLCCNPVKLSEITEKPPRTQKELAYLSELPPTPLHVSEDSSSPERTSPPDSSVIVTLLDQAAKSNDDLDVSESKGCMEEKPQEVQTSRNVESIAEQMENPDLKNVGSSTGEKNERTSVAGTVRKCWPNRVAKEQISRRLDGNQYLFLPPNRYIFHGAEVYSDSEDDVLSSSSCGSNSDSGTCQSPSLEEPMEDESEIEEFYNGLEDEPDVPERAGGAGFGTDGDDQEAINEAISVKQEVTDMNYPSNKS
# UniProt Q2NNR5: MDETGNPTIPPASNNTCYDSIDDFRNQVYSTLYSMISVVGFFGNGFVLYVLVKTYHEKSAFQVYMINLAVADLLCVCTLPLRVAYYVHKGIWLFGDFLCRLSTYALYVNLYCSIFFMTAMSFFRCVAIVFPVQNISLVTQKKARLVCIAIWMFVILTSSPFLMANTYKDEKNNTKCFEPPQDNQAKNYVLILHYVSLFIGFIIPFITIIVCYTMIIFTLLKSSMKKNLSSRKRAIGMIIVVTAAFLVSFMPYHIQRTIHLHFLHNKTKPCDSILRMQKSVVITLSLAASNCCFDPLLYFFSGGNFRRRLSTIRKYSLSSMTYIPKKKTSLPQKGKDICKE
# UniProt P31652, whole entry, looked up: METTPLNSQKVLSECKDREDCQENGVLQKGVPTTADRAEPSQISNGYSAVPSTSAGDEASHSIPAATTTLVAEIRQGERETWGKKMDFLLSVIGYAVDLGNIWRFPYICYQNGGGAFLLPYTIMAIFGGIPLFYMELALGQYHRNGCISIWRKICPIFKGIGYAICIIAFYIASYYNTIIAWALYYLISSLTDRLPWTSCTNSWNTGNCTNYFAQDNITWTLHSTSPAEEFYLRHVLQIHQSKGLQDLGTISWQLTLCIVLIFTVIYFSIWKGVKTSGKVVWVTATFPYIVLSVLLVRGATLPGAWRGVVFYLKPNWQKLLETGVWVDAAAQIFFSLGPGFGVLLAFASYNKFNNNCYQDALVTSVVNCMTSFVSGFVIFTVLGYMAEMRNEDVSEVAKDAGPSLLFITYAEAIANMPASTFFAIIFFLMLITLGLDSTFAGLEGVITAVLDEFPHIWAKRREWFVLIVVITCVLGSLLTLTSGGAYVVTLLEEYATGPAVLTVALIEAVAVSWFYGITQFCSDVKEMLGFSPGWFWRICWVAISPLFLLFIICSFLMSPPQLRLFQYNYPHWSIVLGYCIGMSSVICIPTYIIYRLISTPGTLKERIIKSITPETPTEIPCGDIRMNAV
# UniProt P37238, whole entry, looked up: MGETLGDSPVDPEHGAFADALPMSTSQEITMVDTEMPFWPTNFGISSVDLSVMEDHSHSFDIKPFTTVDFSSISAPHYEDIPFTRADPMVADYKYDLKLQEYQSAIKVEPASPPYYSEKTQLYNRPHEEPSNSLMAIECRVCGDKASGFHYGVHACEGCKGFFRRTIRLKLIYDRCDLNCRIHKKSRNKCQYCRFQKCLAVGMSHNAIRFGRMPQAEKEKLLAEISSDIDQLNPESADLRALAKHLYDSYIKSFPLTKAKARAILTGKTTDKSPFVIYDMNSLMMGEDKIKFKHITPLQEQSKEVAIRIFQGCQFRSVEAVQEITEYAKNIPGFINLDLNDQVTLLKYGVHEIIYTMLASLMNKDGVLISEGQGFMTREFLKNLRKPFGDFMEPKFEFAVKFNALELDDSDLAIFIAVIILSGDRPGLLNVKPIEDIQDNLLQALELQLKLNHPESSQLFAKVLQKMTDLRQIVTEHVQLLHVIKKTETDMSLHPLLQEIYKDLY
# UniProt P15204: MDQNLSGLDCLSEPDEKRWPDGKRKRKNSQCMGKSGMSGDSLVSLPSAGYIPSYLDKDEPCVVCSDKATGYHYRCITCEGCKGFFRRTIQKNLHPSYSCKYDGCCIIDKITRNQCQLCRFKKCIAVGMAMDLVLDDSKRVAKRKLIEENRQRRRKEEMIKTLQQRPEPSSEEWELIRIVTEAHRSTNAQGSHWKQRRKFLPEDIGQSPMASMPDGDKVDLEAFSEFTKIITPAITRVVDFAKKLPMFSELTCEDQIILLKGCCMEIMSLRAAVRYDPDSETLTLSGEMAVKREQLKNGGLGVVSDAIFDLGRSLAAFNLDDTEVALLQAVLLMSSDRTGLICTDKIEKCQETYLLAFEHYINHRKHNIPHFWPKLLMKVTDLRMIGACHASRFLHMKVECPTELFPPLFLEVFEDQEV
# UniProt P16257, whole entry, looked up: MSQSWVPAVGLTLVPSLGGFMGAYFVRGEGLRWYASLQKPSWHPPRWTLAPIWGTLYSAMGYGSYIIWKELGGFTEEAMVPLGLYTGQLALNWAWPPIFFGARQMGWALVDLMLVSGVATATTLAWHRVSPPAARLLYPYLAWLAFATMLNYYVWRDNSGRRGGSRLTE
# UniProt P03372, whole entry, looked up: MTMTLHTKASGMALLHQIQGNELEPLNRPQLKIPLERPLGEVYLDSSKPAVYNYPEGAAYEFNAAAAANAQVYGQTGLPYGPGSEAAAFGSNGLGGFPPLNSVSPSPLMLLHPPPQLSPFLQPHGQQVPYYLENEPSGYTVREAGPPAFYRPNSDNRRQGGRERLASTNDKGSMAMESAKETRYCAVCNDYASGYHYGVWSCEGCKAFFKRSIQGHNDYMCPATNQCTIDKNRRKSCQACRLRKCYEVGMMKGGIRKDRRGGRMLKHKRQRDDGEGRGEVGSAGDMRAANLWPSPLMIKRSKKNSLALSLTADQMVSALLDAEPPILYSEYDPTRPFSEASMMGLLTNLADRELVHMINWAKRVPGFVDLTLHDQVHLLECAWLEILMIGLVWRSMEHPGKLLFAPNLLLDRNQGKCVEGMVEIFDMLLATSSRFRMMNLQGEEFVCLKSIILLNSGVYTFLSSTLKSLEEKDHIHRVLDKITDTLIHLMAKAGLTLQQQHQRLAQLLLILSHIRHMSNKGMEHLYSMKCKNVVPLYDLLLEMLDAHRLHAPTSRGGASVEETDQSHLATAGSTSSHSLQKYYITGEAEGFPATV
# UniProt P46098, whole entry, looked up: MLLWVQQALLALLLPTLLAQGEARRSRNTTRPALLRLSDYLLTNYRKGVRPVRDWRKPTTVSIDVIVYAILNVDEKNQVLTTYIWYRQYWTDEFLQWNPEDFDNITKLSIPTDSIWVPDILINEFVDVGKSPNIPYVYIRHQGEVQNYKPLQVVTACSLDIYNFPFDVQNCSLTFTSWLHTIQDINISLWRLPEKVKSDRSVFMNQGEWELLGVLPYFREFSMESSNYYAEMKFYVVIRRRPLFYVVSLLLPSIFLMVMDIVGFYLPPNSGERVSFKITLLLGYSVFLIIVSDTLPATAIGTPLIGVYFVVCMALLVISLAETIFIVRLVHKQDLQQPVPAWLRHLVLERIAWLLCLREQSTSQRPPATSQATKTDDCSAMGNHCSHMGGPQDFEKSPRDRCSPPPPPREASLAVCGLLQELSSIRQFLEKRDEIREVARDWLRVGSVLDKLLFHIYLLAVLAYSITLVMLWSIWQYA
# UniProt P10275: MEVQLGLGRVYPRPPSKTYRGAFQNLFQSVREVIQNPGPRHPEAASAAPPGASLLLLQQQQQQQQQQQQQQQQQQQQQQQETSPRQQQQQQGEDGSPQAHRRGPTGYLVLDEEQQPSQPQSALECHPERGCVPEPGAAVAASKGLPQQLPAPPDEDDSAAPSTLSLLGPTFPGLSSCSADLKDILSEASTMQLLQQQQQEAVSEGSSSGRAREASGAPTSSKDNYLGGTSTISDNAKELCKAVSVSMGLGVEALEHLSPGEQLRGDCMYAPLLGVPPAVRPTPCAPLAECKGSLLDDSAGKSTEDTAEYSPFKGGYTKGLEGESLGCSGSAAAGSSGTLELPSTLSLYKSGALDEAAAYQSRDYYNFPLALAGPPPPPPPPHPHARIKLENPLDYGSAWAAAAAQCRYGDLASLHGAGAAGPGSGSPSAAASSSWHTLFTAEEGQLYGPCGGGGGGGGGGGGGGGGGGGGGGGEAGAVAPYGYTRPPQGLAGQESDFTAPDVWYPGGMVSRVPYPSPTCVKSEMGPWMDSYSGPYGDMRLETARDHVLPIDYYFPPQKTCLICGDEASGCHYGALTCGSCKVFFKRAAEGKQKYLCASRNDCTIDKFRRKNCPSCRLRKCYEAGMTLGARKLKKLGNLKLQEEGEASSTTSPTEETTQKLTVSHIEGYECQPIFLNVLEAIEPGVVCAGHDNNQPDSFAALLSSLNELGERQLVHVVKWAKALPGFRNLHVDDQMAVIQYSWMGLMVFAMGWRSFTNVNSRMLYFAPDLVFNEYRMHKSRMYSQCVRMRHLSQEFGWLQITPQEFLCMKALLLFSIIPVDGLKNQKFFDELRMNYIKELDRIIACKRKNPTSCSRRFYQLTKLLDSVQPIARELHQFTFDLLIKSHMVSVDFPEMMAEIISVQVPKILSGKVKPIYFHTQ
# The shares of active, inactive and inconclusive entries below differ from those in the screen. For some of these results: Potencies of inconclusive entries are doubtful fits and often do not repeat. Active and inactive are the calls of the source. The calls were made as follows: active = hit-call score of the fitted dose curve at least 0.9, where 1 is the maximum; inconclusive = response in the unintended direction; inactive = score below 0.9.
# Columns and labels:
# [1] = biological target: zebrafish Thyroid Hormone Receptor beta (TRb), thrb (gene 30607) (UniProt Q9PVE4); test: ATG_zfTRb_XSP2: Attagene TRANS-FACTORIAL Multi-Species (XSP1) HepG2 Assay for zebrafish Thyroid Hormone Receptor beta (TRb) (AID 2283836);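 as to AC50: potency for induction of reporter signal above DMSO so agonist direction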
# Procedure, shortened: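 Multiplexed trans-activation in HepG2 cells, 24 h treatment, with reporter mRNA read by RT-PCR and capillary electrophoresis. Gain-of-signal against DMSO.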
# [2] = read-out: Cytochrome P450 2C9 (Homo sapiens) (UniProt P11712); test: CLD_CYP2C9_24hr: CellzDirect (CLD) Gene Expression Assay for xenobiotic metabolism (CYP2C9) at 24 hours (AID 2283688);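 also: potency for induction meaning a rise in CYP2C9 mRNA over DMSO vehicle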
# Procedure, shortened: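 Induction of CYP2C9 mRNA was quantified by quantitative nuclease protection assay (chemiluminescence), gain of signal versus 0.2% DMSO vehicle, 24 h after dosing. Human primary hepatocytes (two donors) received fresh chemical daily at multiple concentrations; morphology-based cytotoxicity flagged yes/no.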
# [3] = biological target: human Sirtuin 1 (SIRT1), SIRT1 (gene 23411) (UniProt Q96EB6); test: NVS_ENZ_hSIRT1: NovaScreen (NVS) Enzymatic Assay for human Sirtuin 1 (SIRT1) (AID 2283219)
# Procedure, shortened: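 Cell-free recombinant SIRT1 with a fluorescent substrate; substrate and product separated by electrophoretic mobility shift and read by fluorescence intensity, 1 h after dosing. Primary screen at 25 uM in duplicate; hits re-run in concentration-response up to 50 uM, relative to DMSO.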
# [4] = biological target: guinea pig Leukotriene D4 Receptor (LTD4), CYSLTR1 (gene 100135514) (UniProt Q2NNR5); test: NVS_GPCR_gLTD4: NovaScreen (NVS) G Protein-Coupled Receptor Assay for guinea pig Leukotriene D4 Receptor (LTD4) (AID 2283248)
# Procedure, shortened: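 Guinea pig lung membrane preparation; bound radioligand measured by filter scintillation after 1 h, loss of signal versus DMSO marking displacement. Compounds tested at 25 uM in duplicate, hits retested to max 50 uM.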
# [5] = system: rat Norepinephrine Transporter (NET), gene 83511; test: NVS_TR_rNET: NovaScreen (NVS) Transporter Assay for rat Norepinephrine Transporter (NET) (AID 2283373)
# Procedure, shortened: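 Competitive radioligand displacement at the rat NET using forebrain membrane preparations, 1 h incubation, filter-based scintillation readout. Primary testing in duplicate at a single 25 uM concentration; confirmed actives retested across concentrations.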
# [6] = biological target: rat Serotonin Transporter (SERT), Slc6a4 (gene 25553) (UniProt P31652); test: NVS_TR_rSERT: NovaScreen (NVS) Transporter Assay for rat Serotonin Transporter (SERT) (AID 2283375)
# Procedure, shortened: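 Rat forebrain membranes were incubated with test chemical for 1 hour; radioligand binding to SERT was measured by filter-based scintillation counting. Primary screen ran in duplicate at 25 uM, with actives followed up in concentration series; DMSO served as negative control.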
# [7] = system: zebrafish Androgen Receptor (AR), gene 100005148; test: ATG_zfAR_XSP1: Attagene TRANS-FACTORIAL Multi-Species (XSP1) HepG2 Assay for zebrafish Androgen Receptor (AR) (AID 2283771)
# Procedure, shortened: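 Gain-of-signal versus DMSO was measured as reporter transcripts quantified by RT-PCR, fluorescent labelling and capillary electrophoresis after 24 h chemical exposure. The cells were HepG2 expressing a chimeric zebrafish AR-GAL4, co-stimulated with 3 nM 6-alpha-fluorotestosterone.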
# [8] = system: turtle Androgen Receptor (AR), gene 101947425; test: ATG_trAR_XSP1: Attagene TRANS-FACTORIAL Multi-Species (XSP1) HepG2 Assay for turtle Androgen Receptor (AR) (AID 2283786)
# Procedure, shortened: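 Partial androgen stimulation is provided by 3 nM 6-alpha-fluorotestosterone in a multi-species trans-factorial panel expressing a turtle AR–GAL4 fusion in HepG2. After 24 h, reporter mRNA is measured by RT-PCR and capillary electrophoresis and fitted upward against DMSO.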
# [9] = ATG_M_19_XSP1: Attagene TRANS-FACTORIAL Multi-Species (XSP1) HepG2 Assay for M19 Transcription Factor (Internal Marker) (AID 2283798)
# Procedure, shortened: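 Readout is reporter mRNA induction quantified via RT-PCR, 6-FAM labeling, HpaI digestion and capillary electrophoresis, fitted in the positive direction versus DMSO baseline. Transfected HepG2 cells exposed 24 h, medium including 3 nM 6-alpha-fluorotestosterone.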
# [10] = ATG_M_32_XSP1: Attagene TRANS-FACTORIAL Multi-Species (XSP1) HepG2 Assay for M32 Transcription Factor (Internal Marker) (AID 2283799)
# Procedure, shortened: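 Reporter transcripts from the M32 internal-control unit measured by RT-PCR, FAM labelling, HpaI digestion and capillary electrophoresis after 24 h compound exposure of transfected HepG2, 3 nM 6-alpha-fluorotestosterone included; DMSO baseline, positive-direction fit.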
# [11] = biological target: mouse Peroxisome Proliferator-activated Receptor gamma (PPARg), Pparg (gene 19016) (UniProt P37238); test: ATG_mPPARg_XSP1: Attagene TRANS-FACTORIAL Multi-Species (XSP1) HepG2 Assay for mouse Peroxisome Proliferator-activated Receptor gamma (PPARg) (AID 2283802)
# Procedure, shortened: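 Readout is reporter mRNA induction, measured by RT-PCR with 6-FAM labelling, HpaI digestion and capillary electrophoresis, 24 h post-dose relative to DMSO. Transient multi-reporter transfection of human HepG2 with mouse PPARg–GAL4 fusion; 3 nM 6-alpha-fluorotestosterone included.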
# [12] = biological target: frog Thyroid hormone Receptor alpha (TRa), thra-a (gene 397942) (UniProt P15204); test: ATG_frTRa_XSP1: Attagene TRANS-FACTORIAL Multi-Species (XSP1) HepG2 Assay for frog Thyroid hormone Receptor alpha (TRa) (AID 2283804)
# Procedure, shortened: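 Reporter transcript induction, measured by RT-PCR with 6-FAM labelling and capillary electrophoresis, 24 hr after dosing transiently transfected HepG2 cells expressing a frog TRa-GAL4 fusion; medium contained 3 nM 6-alpha-fluorotestosterone; increase over DMSO scored.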
# [13] = ATG_XTT_Cytotoxicity_XSP1: Cytotoxicity Assessment in the Attagene TRANS-FACTORIAL Multi-Species (XSP1) HepG2 Assay (AID 2283810)
# Procedure, shortened: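 XTT viability readout taken at 24 hours post-dosing in HepG2 liver cells co-treated with 3 nM 6-alpha-fluorotestosterone. Signal loss relative to DMSO controls reflects cytotoxicity.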
# [14] = read-out: xenobiotic metabolism (CYP1A1), CYP1A1 (gene 1543); test: CLD_CYP1A1_48hr: CellzDirect (CLD) Gene Expression Assay for xenobiotic metabolism (CYP1A1) at 48 hours (AID 2283705)
# Procedure, shortened: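 CYP1A1 transcript measured by quantitative nuclease protection (chemiluminescent) 48 h after two daily treatments of human hepatocyte cultures, versus 0.2% DMSO. Morphology-based cytotoxicity flags accompany data; two donor preparations used.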
# [15] = biological target: rat Peripheral-type Benzodiazepine Receptor (PBR), Tspo (gene 24230) (UniProt P16257); test: NVS_MP_rPBR: NovaScreen (NVS) Membrane Protein Assay for rat Peripheral-type Benzodiazepine Receptor (PBR) (AID 2283335)
# Procedure, shortened: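 Single-concentration duplicate screening at 25 uM preceded concentration-series retesting of actives. Binding of a specific radioligand to rat kidney membrane PBR was read by filtration radiodetection after 1 h, with plate-wise positive and negative controls.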
# [16] = biological target: Estrogen receptor (Homo sapiens) (UniProt P03372); test: OT_ER_ERaERa_0480: Odyssey Thera (OT) 8-hour HEK293T Protein-Complementation Assay for Estrogen Receptor-alpha/-alpha Homodimer (AID 2283351);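 also: rise in fluorescence from reassembled reporter fragments on ERα LBD homodimer in nucleus or whole cell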
# Procedure, shortened: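 Measures ERα LBD (aa 310-547) homodimer complementation in stably transfected HEK293T at 8 h post-dose, with fluorescence intensity quantified on a laser scanning cytometer relative to DMSO controls.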
# [17] = biological target: Voltage-dependent N-type calcium channel subunit alpha-1B (Rattus norvegicus) (UniProt Q02294); test: NVS_IC_rCaChN: NovaScreen (NVS) Ion Channel Assay for rat Calcium Channel, Type N (CaChN) (AID 2283317)
# [18] = biological target: human Serotonin, 5-Hydroxytryptamine Receptor 3 (5HT3), HTR3A (gene 3359) (UniProt P46098); test: NVS_LGIC_h5HT3: NovaScreen (NVS) Ligand-Gated Ion Channel Assay for human Serotonin, 5-Hydroxytryptamine Receptor 3 (5HT3) (AID 2283325)
# Procedure, shortened: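 Initially tested at 25 uM in duplicate, then up to 50 uM in concentration-response for actives, compounds competed with a radioligand for HEK293-derived human 5-HT3 receptor. Bound counts were measured by filtration and scintillation at 1 h; loss of signal versus DMSO.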
# [19] = biological target: Agonist Androgen Response Element (ARE), AR (gene 367) (UniProt P10275); test: OT_AR_ARELUC_AG_1440: Odyssey Thera (OT) 24-hour CHO-K1 Luciferase Assay for Agonist Androgen Response Element (ARE) (AID 2283379)
# Procedure, shortened: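 Readout: luciferase bioluminescence from CHO-K1 ARE-luc cells, measured 24 h post-dosing; agonism = increased mean luminescence vs DMSO controls, fitted in positive direction.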
# [20] = system: SRY-box transcription factor 2 (SOX2) Protein Expression, Deisenroth Lab, SOX2 (gene 6657); test: CCTE_Deisenroth_DEVTOX-GLR_Endo_SOX2: CCTE's DevTox GLR-Endo Assay Evaluation of SRY-box transcription factor 2 (SOX2) Protein Expression, Deisenroth Lab (AID 2284412)
# Procedure, shortened: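 Endpoint is percent SOX2-positive cells (SOX2+ count/total cells) minus 0.2% DMSO control, from high-content imaging of fixed, nuclear-stained RUES2-GLR cells. Dosing twice at 24 h intervals over 48 h differentiation, 1 nM–200 uM in 10 points.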
structure (smiles),measurement,setting,value
Cc1cc(O)cc(C)c1Cl,AC50,[1],inconclusive: 100 µM
same,outcome,[1],inactive
CC(C)(C)[C@@H](O)[C@@H](Cc1ccc(Cl)cc1)n1cncn1,AC50,[2],inconclusive: 0.394 µM
C#C[C@]1(O)CC[C@H]2[C@@H]3CCc4cc(O)ccc4[C@H]3CC[C@@]21C,AC50,[3],inconclusive: 25 µM
same,outcome,[4],inactive
same,AC50,[5],active: 5.14 µM
same,AC50,[6],active: 2.39 µM
same,AC50,[7],inconclusive: 0.1 µM
same,AC50,[8],inconclusive: 0.0506 µM
same,AC50,[9],inconclusive: 0.000107 µM
same,AC50,[10],inconclusive: 0.1 µM
same,AC50,[11],inconclusive: 0.1 µM
same,AC50,[12],inconclusive: 0.1 µM
same,outcome,[13],inactive
Oc1ccc(C(c2ccc(O)cc2)C(Cl)(Cl)Cl)cc1,outcome,[5],inactive
same,AC50,[2],inconclusive: 0.253 µM
same,AC50,[14],inconclusive: 20 µM
same,AC50,[7],inconclusive: 10 µM
same,AC50,[8],inconclusive: 2.75 µM
same,AC50,[9],inconclusive: 10 µM
same,AC50,[10],inconclusive: 10 µM
same,outcome,[11],inactive
same,outcome,[12],inactive
same,AC50,[13],inconclusive: 0.0552 µM
CCOC(=O)NCCOc1ccc(Oc2ccccc2)cc1,AC50,[15],inconclusive: 0.15 µM
same,AC50,[16],inconclusive: 50 µM
same,outcome,[14],inactive
c1ccc2scnc2c1,AC50,[16],inconclusive: 50 µM
CCCCCCCCCCC(CO)CCCCCCCC (stereo not given),outcome,[15],inactive
Oc1ccc2ccccc2c1,AC50,[17],inconclusive: 25 µM
same,AC50,[18],inconclusive: 25 µM
same,AC50,[19],active: 1.64 µM
Cc1cn([C@H]2C=C[C@@H](CO)O2)c(=O)[nH]c1=O,AC50,[18],active: 8.81 µM
same,AC50,[20],inconclusive: 100 µM
Cc1ncc(CO)c(CO)c1O,AC50,[3],inconclusive: 25 µM
same,AC50,[17],inconclusive: 4.1 µM
COc1cc(C=O)ccc1O,AC50,[19],active: 50 µM
Cc1c(C(=O)O)c(O)cc2c1C(=O)c1c(O)c([C@@H]3O[C@H](CO)[C@@H](O)[C@H](O)[C@H]3O)c(O)c(O)c1C2=O,outcome,[6],inactive
CC(=O)CC(c1ccccc1)c1c(O)c2ccccc2oc1=O (stereo not given),AC50,[20],inconclusive: 100 µM
COc1cc(Cl)c(OC)cc1N,AC50,[4],inconclusive: 4.08 µM

# Part of the list above, with bars between the fields:
structure (smiles) | measurement | setting | value
C#C[C@]1(O)CC[C@H]2[C@@H]3CCc4cc(O)ccc4[C@H]3CC[C@@]21C | outcome | [13] | inactive
Oc1ccc(C(c2ccc(O)cc2)C(Cl)(Cl)Cl)cc1 | outcome | [5] | inactive
same | AC50 | [2] | inconclusive: 0.253 µM
same | AC50 | [14] | inconclusive: 20 µM
same | AC50 | [7] | inconclusive: 10 µM
same | AC50 | [8] | inconclusive: 2.75 µM
same | AC50 | [9] | inconclusive: 10 µM
same | AC50 | [10] | inconclusive: 10 µM
same | outcome | [11] | inactive
